Patent US20220040136A1, “TREATMENT OF VULVOVAGINAL DISORDERS” (University of Rochester, priority 2018, published 2022)
At least one structure is not confirmed: it was looked up by name or label, or the drawing left a doubt.

What was measured:
C57BL/6J mice = experiment: Mouse model of LPV, DHA cream (Example 4); assay type: in vivo
Source text: A total of 36 C57BL/6J mice were subjected to 6 weeks of allodynia induction using the protocol described above. Briefly, zymosan was used to induce sustained vulvar allodynia, measured by pain threshold testing. An electronic vonFrey system (MOUSEMET™, Topcat Metrology) was used to apply gradually increasing force to the vulva at the injection site, located at the midline posterior vulvar (between the vaginal opening and anus) (FIG. 7A). The hair was applied perpendicular to the vulvar surface with a gradually increasing force within a range of 0.100 g to 7.0 g (FIG. 7B). A positive response was defined as either (1) a reflexive, coordinated four extremity extension, (2) jump, or (3) immediate grooming of the vulva in response to vulvar stimulus, at which point the peak force was recorded.
During allodynia induction, mice receive weekly injections of zymosan (10 mg/ml in 10 μl saline) for a maximum of 6 injections, until a >33% reduction in pain threshold is observed for 2 consecutive weeks of testing (FIG. 7C). Pain threshold testing was performed at the same time every week, immediately prior to zymosan injection; after the first 2 weeks of injections, a determination of threshold change was performed after pain testing to determine which mice would receive additional zymosan injections.
After 6 weeks of induction, a total of 35 mice developed allodynia, which were divided into the following treatment groups: DHA cream (12 mice), placebo cream (12 mice), and mock treatment (11 mice). DHA and placebo cream mice received twice daily topical application of the designated cream via a cotton swab, Monday through Friday and single daily application on Saturdays and Sundays for a total of 6 weeks. The entire shaved area was coated with a thin layer of cream prior to release into the home cage. Mice receiving mock treatment were treated for the same length of time over the same vulvar area with a cotton swab moistened with sterile PBS.
After 6 weeks of treatment, 9 mice had recovered in each the DHA and placebo groups, while 6 mice had recovered in the mock treatment group (FIG. 13). The same results were obtained when “recovery” was defined as a threshold that was at least 70% of the pre-pain threshold, prior to zymosan injection. […] However, when looking at recovery over time, inventors saw temporal treatment differences between DHA and placebo cream (FIG. 13). Mice in the DHA cream group began to recover as early as the first two weeks of treatment, while only one mouse had recovered in the placebo cream group; it took 3-4 weeks for the placebo cream group to catch up to the DHA cream group. Overall, fewer mice recovered in the mock group, but we began to see evidence of recovery around 4 weeks, which may be reflective of natural pain resolution in the model.

[1] = tested on: Vestibular or vulvar fibroblasts; experiment: DHA supplementation of vestibular or vulvar fibroblasts, PGE2 output; assay type: cell-based, human; conditions: pre-treated with 200 nM for 72 h, then IL-113 (10 pg/ml) 72 hr; FIG. 11

CC/C=C\C/C=C\C/C=C\C/C=C\C/C=C\C/C=C\CCC(=O)O [DHA, docosahexaenoic acid]
vulvar pain outcomes, overall (C57BL/6J mice; 6-week course, twice daily topical cream): improved pain outcomes more rapidly than placebo
percent improvement scores vs placebo and mock (C57BL/6J mice; first 2 weeks of treatment, FIG. 14): higher
differences in PGE2 levels between the DHA and placebo groups (C57BL/6J mice; vulvovaginal lavages): no significant differences
percent improvement scores vs placebo (C57BL/6J mice; week 3 of treatment, FIG. 14): no differences
PGE2 levels in vulvovaginal lavages during treatment (C57BL/6J mice; weekly lavages, FIG. 15): dropped rapidly and remained low
proinflammatory mediator output (PGE2 content) [1]: reduces proinflammatory mediator output
